Data: patent US20040110684A1
No constants are given. Whether binding was seen depends on the method and setting. In cells and extracts the contact can be indirect. Some binding calls cover weakened binding; strength is not graded here.

Target: T1, endothelial nitric oxide synthase (eNOS), endogenous, rat aorta-derived endothelial cells (AoECs) (rat) (UniProt Q62600)
T1 sequence (looked up): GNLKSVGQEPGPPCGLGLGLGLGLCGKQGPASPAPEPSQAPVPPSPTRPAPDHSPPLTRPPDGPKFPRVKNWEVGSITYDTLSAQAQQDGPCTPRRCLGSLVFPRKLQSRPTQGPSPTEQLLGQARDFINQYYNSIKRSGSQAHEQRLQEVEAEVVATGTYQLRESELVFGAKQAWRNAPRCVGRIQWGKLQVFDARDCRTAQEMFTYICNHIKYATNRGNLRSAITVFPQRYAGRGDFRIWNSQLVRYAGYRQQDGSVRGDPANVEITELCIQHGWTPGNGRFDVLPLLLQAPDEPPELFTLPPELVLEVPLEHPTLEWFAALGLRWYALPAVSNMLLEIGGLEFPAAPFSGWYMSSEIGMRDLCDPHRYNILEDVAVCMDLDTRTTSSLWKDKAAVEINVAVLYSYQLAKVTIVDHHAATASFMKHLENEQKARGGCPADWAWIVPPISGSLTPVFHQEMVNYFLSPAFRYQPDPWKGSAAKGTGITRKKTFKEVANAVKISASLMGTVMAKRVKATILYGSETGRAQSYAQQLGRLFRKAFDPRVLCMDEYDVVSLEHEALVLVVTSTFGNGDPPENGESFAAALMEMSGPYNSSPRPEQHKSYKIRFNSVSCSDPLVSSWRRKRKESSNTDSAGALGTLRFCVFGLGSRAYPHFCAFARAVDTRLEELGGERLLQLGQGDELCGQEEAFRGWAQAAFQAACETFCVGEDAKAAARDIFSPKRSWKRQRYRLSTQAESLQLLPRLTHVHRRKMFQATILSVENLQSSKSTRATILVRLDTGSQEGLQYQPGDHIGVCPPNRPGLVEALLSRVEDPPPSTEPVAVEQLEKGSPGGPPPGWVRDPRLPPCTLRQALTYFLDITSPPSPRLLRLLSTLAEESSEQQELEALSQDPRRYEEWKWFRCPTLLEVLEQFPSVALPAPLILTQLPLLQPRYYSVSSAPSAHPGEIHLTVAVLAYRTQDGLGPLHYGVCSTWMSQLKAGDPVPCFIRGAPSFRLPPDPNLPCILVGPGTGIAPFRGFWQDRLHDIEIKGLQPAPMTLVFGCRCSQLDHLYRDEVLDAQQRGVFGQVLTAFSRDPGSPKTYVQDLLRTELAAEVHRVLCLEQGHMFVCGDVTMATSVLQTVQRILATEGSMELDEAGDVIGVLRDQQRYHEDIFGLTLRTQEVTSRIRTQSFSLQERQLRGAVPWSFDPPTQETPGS
Assay: co-IP with eNOS or caveolin antibodies, immunoblot, AoEC lysates

B1: caveolin, endogenous, rat aorta-derived endothelial cells (AoECs) (protein, UniProt P41350 2-178, looked up)
chain: SGGKYVDSEGHLYTVPIREQGNIYKPNNKAMADEVNEKQVYDAHTKEIDLVNRDPKHLNDDVVKIDFEDVIAEPEGTHSFDGIWKASFTTFTVTKYWFYRLLSTIFGIPMALIWGIYFAILSFLHIWAVVPCIKSFLIEIQCISRVYSIYVHTFCDPLFEAIGKIFSNIRISTQEEI
binding: binds
